Some of the results follow.
What follows are compounds tested on T1, CTL2-GFP (C. trachomatis L2/434/Bu, GFP-expressing). Details: bulk GFP, single well; 28.5 h, 10 µM; inhibitor.
T1 construct: L2/434/Bu, GFP-expressing
Design: species or system HeLa; Intracellular C. trachomatis growth in HeLa cells, bulk GFP fluorescence relative to DMSO
With `Cc1cccc(NCC2CCN(CC(=O)Nc3cc(C)on3)C2)n1` (centres unmarked) [CBK306118] the “% of control remaining” value was 133.609%. With `NC(=O)Nc1ccc(C(=O)N2CCN(c3ccccc3)CC2)cc1` [CBK306392] the “% of control remaining” value was 89.8122%. With `O=C(O)c1cccc(S(=O)(=O)Nc2nc3c(Cl)cccc3s2)c1` [CBK161135] the “% of control remaining” value was 111.432%. With `O=C(O)C1CCN(C2C(=O)Nc3ccc(Cl)cc3C2c2ccccc2)CC1` (centres unmarked) [CBK287210] the “% of control remaining” value was 122.124%. `CCc1ccccc1C(=O)N1CCCCC1CC` (centres unmarked) [CBK081556] was tested, and the “% of control remaining” value was 127.619%. In the case of `O=c1c2cc(Br)cc(F)c2ncn1CCC1CCCO1` (centres unmarked) [CBK306451], the “% of control remaining” value is reported as 143.449%. For `Cc1cc(CCCC(=O)N2CCCC(c3ccc(Nc4ncccn4)cn3)C2)ccc1F` (centres unmarked) [CBK286003], the “% of control remaining” value was 117.692%. For `C(=C\c1ccccc1)/CN1CCN(c2ncccn2)CC1` [CBK261909], the “% of control remaining” value was 99.3362%. `Fc1cc(CN2CCC3(CC2)OCCc2c3[nH]c3ccc(Br)cc23)cc(F)c1F` [CBK039943] was tested, and the “% of control remaining” value was 29.5608%. In the case of `CN(Cc1ccccc1)c1nccnc1-c1ccc(CO)cc1` [CBK038067], the “% of control remaining” value is reported as 185.295%. In the case of `CCOC(=O)C1=NN(C(=O)c2ccc(Cl)cc2)C(O)(C(C)(C)C)C1` (centres unmarked) [CBK026308], the “% of control remaining” value is reported as 112.093%. In the case of `OC1CSc2nc(-c3cnccn3)nn2C1` (centres unmarked) [CBK027096], the “% of control remaining” value is reported as 122.037%. `S=c1[nH]nnn1-c1ccc(Cl)c(Cl)c1` [CBK016327] was tested, and the “% of control remaining” value was 148.215%. With `O=C(NCCCn1cc(Cl)cn1)N1CCCN(Cc2cccs2)CC1` [CBK307279] the “% of control remaining” value was 121.42%. For `CC(=O)Nc1ccc(-c2ccc(C(=O)NCc3cccnc3)cn2)cc1` [CBK158842], the “% of control remaining” value was 90.13%. `N#Cc1ccc(NCc2ccccc2CN2CCCC2CO)nc1` (centres unmarked) [CBK304055] was tested, and the “% of control remaining” value was 132.871%. `CCN1C(=O)/C(=C/c2cc3c(cc2Cl)OCO3)NC1=S` [CBK265117] was tested, and the “% of control remaining” value was 100%. `O=C(c1ccccc1)C1(CO)COCc2nccn21` (centres unmarked) [CBK009980] was tested, and the “% of control remaining” value was 141.118%. With `COCOc1ccc(-c2nc(-c3cccs3)cnc2N)cc1` [CBK063977] the “% of control remaining” value was 165.885%. With `O=C(Nc1nnc(C(F)(F)F)s1)c1ccc(F)c(Cl)c1` [CBK076831] the “% of control remaining” value was 96.1138%. For `COc1cc(CN2CCN(S(=O)(=O)c3ccc(Cl)cc3)CC2)cc(OC)c1OC` [CBK074499], the “% of control remaining” value was 109.869%. In the case of `Oc1ccc(-n2ncc(-c3ccc(F)cc3)n2)cc1` [CBK112904], the “% of control remaining” value is reported as 108.606%. In the case of `Nc1nonc1C(=O)NCc1cccnc1` [CBK025695], the “% of control remaining” value is reported as 147.001%. `c1ccc(-c2nnc(Cn3cncn3)o2)cc1` [CBK011113] was tested, and the “% of control remaining” value was 120.98%. With `COc1cc(OC)cc(C(=O)N[C@@H]2CC[C@@]3(c4ccc(OC)c(OC)c4)CCN(C)[C@H]3C2)c1` [CBK074242T] the “% of control remaining” value was 132.165%. `O=C(O)CCC(=O)Nc1ccc(Br)c2cccnc12` [CBK265186] was tested, and the “% of control remaining” value was 100%. In the case of `CCCCNC(=O)c1ccc2c(c1)NC(=O)C(N1CCCC1)S2` (centres unmarked) [CBK071762], the “% of control remaining” value is reported as 111.376%. `CN(C)S(=O)(=O)c1cc(C(=O)NCCc2c[nH]c3ccccc23)c(Cl)cc1Cl` [CBK265883] was tested, and the “% of control remaining” value was 120.801%. `CC(C)(c1ccc(OC(=O)c2ccc(N)cc2)cc1)c1ccc(OC(=O)c2ccc(N)cc2)cc1` [CBK260962] was tested, and the “% of control remaining” value was 100%. `COc1cccc(NC(=O)C(=O)NCCCO)c1` [CBK262095] was tested, and the “% of control remaining” value was 106.909%. For `CCN1CCN(c2ccc(N3C(=O)N[C@@H](C(C)C)C3=O)cc2)CC1` [CBK287953], the “% of control remaining” value was 146.832%. In the case of `NS(=O)(=O)c1cc(C(=O)OCC(=O)c2ccccc2)c(Cl)cc1Cl` [CBK264542], the “% of control remaining” value is reported as 122.143%. `CCOc1ccc2nc(NC3=NC(CC(=O)O)C(=O)N3)nc(C)c2c1` (centres unmarked) [CBK263120] was tested, and the “% of control remaining” value was 103.213%. In the case of `O=C(CSCc1nc(O)c2c3c(sc2n1)CCCC3)Nc1ccc(F)cc1` [CBK265568], the “% of control remaining” value is reported as 116.876%. With `COc1cc(CNc2nn[nH]n2)ccc1OCc1ccc(F)cc1Cl` [CBK269536] the “% of control remaining” value was 112.378%. With `c1cn2cc(-c3ccoc3)nc(NC3CC3)c2n1` [CBK066720] the “% of control remaining” value was 175.393%. `Cc1cc(Cl)ccc1OCC(=O)Nc1ccc(O)cc1C(=O)O` [CBK131706] was tested, and the “% of control remaining” value was 136.195%. With `CN(C)c1ccc(-c2nc(-c3ccco3)cnc2N)cc1` [CBK063934] the “% of control remaining” value was 56.3751%. For `CN(C)CCCNC(=O)c1cc(C(C)(C)C)nn1Cc1ccc(Cl)cc1Cl` [CBK107286], the “% of control remaining” value was 90.1996%. In the case of `Cc1nc2nc(-c3ccc(F)cc3F)cn2nc1C` [CBK284564], the “% of control remaining” value is reported as 136.597%. For `COc1c(Cl)cc(Cl)cc1CNC(C)(C)CO` [CBK270212C], the “% of control remaining” value was 180.762%. For `COC(=O)N/N=C(\C)c1ccc(Br)s1` [CBK027886], the “% of control remaining” value was 120.583%. `O=C(O)COc1ccc2c(=O)c(Oc3ccccc3Br)c(C(F)(F)F)oc2c1` [CBK263747] was tested, and the “% of control remaining” value was 113.417%. In the case of `CCCn1cnnc1CN(C)C(=O)NCCc1nc2ccccc2s1` [CBK307663], the “% of control remaining” value is reported as 124.244%. With `COc1cccc(C(=O)COC(=O)c2cc(-c3ccccc3)nc3ccc(Br)cc23)c1` [CBK265143] the “% of control remaining” value was 144.044%. `CCOC(=O)N1CCN(Cc2ccc(O)c(OC)c2)CC1` [CBK261873] was tested, and the “% of control remaining” value was 100%. For `OCCOc1ccc(OCCOc2nccnc2N2CCNCC2)cc1` [CBK014349G], the “% of control remaining” value was 116.407%. For `Cc1nccn1CC(=O)N1CCCC1(C)C(=O)NC1CCCC1` (centres unmarked) [CBK281539], the “% of control remaining” value was 104.667%. With `CC(=O)Nc1ccc(-c2ccc(COC3CCN(C(=O)c4ccc(F)cc4F)CC3)cc2)cc1` [CBK149216] the “% of control remaining” value was 106.655%. For `O=C(Nc1cccnc1)c1cccc(S(=O)(=O)N2CCCC2)c1` [CBK269846], the “% of control remaining” value was 109.567%. In the case of `O=C(O)CSc1nccn1Cc1ccccc1` [CBK262215], the “% of control remaining” value is reported as 100%. In the case of `Cc1ccc(S(=O)(=O)N2CC=CCC2)cc1` [CBK058443], the “% of control remaining” value is reported as 103.218%. For `O=C(NC1CCCCC1)c1ccccc1NC(=O)C1CCCCC1C(=O)O` (centres unmarked) [CBK267675], the “% of control remaining” value was 114.963%.

From article PMC12040169 (PLOS Biology, 2025)
